Assay results published in paper doi:10.1101/2021.03.24.436729.
Results are given in words; binding and its absence hold for the method and conditions named. Binding seen in cells or lysates may run through a third protein. Some results given as binding are weak or reduced against the parent protein; the word gives no strength.

Protein sequences, listed by entry. Tags and fused reporters are not part of them.
UniProt P38398: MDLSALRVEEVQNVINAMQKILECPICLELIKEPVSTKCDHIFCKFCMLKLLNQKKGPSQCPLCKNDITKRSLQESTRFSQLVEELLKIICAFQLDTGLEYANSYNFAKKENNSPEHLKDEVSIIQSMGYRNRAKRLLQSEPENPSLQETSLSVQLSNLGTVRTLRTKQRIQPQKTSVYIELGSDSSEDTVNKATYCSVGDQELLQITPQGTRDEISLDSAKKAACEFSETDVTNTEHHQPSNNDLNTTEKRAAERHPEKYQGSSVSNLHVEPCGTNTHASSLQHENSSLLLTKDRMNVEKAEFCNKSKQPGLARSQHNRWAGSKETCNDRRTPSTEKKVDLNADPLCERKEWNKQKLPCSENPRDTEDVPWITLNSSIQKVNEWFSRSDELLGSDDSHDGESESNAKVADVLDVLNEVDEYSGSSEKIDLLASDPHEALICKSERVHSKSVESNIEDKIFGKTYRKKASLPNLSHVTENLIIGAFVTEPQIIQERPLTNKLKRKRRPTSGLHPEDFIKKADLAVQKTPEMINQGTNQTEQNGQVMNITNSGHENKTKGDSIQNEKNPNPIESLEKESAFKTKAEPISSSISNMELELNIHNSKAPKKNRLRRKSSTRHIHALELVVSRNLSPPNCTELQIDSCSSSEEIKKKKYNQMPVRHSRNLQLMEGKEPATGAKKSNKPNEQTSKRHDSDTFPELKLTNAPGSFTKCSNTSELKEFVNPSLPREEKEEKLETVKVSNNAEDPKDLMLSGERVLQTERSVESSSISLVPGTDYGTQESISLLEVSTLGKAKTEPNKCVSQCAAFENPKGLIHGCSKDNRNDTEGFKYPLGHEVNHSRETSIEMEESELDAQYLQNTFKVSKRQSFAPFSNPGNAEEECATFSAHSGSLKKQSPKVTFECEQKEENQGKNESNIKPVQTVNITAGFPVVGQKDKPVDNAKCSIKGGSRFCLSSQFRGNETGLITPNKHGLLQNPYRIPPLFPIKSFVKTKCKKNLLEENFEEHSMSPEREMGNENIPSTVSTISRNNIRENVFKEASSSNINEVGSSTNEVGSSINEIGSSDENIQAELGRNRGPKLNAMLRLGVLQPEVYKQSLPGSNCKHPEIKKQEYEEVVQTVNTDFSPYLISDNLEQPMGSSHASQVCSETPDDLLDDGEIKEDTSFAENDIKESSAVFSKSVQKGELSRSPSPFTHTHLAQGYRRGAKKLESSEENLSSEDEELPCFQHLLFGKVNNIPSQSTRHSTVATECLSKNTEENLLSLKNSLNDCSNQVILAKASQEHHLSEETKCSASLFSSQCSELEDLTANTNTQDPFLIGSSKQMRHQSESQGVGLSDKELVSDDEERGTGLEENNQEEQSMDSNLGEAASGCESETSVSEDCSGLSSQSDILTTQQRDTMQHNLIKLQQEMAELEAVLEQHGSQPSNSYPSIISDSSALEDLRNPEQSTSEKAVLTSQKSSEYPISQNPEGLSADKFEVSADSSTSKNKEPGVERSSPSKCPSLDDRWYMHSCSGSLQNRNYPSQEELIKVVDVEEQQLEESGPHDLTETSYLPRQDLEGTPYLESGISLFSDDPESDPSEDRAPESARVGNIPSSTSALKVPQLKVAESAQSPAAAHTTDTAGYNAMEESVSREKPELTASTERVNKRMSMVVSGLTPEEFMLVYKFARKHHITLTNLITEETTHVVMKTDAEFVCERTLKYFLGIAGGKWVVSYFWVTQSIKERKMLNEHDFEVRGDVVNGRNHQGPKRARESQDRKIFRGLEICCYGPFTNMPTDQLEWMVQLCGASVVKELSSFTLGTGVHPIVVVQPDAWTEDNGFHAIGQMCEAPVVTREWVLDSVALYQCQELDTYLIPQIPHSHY
UniProt Q7Z333: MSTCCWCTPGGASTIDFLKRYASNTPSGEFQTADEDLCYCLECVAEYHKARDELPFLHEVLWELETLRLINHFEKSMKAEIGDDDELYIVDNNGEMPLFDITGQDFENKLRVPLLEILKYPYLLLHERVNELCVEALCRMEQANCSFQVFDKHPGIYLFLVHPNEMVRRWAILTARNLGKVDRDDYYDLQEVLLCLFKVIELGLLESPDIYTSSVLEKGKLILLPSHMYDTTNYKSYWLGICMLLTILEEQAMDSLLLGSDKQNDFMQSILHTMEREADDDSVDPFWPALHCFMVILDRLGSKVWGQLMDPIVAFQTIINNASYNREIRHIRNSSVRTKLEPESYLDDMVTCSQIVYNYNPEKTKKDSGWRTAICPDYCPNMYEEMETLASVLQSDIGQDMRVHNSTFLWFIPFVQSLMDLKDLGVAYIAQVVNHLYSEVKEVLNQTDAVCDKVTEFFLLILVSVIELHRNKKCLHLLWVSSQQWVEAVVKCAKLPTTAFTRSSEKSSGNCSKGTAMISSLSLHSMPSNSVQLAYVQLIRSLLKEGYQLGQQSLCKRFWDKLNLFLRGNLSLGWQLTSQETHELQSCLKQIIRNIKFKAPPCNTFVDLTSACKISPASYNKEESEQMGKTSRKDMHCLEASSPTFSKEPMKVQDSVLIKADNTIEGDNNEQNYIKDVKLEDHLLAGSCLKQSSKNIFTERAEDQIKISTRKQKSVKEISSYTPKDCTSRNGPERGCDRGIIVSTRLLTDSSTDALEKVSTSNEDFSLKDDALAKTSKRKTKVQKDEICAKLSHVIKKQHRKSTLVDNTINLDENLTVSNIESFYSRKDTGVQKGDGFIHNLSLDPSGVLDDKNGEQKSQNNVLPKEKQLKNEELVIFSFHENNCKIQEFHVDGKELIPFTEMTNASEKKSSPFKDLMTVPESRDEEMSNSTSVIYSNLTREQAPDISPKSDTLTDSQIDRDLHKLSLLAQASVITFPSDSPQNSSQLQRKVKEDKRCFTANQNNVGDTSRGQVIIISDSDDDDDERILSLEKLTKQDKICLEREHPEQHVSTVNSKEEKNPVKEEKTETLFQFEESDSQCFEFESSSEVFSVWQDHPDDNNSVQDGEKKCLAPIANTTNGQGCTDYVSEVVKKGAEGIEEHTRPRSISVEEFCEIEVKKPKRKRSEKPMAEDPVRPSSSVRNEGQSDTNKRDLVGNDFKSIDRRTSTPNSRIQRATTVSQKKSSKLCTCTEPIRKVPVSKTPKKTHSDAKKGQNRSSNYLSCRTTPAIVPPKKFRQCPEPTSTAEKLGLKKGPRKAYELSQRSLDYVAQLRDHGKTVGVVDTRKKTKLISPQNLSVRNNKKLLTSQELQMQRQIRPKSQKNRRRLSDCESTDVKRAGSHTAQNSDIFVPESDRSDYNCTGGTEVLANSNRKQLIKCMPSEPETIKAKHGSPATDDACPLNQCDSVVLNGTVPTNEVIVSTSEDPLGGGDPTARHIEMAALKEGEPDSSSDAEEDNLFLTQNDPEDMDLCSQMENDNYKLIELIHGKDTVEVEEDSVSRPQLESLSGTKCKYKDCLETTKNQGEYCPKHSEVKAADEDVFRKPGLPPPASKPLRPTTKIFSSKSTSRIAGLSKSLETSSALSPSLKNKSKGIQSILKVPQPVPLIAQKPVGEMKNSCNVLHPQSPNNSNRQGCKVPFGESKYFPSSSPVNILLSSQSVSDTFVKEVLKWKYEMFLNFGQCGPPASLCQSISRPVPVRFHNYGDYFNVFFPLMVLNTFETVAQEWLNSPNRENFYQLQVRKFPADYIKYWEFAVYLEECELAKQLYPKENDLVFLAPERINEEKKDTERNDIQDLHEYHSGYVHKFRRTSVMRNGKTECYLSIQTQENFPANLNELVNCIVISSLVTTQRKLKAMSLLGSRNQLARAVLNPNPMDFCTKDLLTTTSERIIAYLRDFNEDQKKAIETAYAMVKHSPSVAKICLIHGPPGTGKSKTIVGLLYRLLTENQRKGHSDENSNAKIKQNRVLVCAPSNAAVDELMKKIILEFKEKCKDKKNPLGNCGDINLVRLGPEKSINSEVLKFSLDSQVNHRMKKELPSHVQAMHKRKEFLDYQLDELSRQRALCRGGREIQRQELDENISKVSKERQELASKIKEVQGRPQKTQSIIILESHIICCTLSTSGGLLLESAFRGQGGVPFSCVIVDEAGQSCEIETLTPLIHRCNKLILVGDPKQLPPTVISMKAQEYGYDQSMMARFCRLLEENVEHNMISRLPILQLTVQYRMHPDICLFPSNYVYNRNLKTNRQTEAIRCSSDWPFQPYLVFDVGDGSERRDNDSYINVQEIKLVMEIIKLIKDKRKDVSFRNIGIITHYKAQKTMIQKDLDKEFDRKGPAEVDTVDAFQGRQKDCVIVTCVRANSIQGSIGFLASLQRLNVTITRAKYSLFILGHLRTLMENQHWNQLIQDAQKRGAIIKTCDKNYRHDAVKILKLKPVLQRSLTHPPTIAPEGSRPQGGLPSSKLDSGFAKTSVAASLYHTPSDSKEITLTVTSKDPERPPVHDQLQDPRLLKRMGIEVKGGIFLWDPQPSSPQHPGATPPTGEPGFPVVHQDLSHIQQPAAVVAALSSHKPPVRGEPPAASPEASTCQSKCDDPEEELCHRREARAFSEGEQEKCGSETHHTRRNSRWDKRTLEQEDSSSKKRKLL
UniProt P13010: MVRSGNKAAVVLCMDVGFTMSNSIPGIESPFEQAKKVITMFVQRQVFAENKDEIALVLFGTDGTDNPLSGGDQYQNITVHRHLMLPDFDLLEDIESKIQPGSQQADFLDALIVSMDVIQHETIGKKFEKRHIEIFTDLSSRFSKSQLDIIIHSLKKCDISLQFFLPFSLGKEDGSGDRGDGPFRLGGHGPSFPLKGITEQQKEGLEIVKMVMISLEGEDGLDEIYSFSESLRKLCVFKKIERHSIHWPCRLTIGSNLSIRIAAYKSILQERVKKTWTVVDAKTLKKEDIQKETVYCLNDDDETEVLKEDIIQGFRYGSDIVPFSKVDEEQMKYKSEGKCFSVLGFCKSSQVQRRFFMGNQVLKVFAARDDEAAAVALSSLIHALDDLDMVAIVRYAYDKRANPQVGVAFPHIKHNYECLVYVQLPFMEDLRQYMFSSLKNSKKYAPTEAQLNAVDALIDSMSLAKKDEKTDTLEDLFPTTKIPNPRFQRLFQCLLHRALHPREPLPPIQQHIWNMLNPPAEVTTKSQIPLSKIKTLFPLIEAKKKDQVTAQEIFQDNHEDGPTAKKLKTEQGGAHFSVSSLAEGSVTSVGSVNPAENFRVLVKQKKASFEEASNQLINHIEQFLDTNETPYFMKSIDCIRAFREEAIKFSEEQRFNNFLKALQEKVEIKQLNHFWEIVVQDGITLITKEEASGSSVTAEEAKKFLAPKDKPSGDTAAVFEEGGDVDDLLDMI

Legend:
Test in all cases: co-IP
[1] = biological target: ADAR2 (human (endogenous in U2OS)) (UniProt P78563)
[2] = biological target: BRCA1 (human (endogenous in U2OS)) (UniProt P38398)
[3] = biological target: Senataxin (human (endogenous in U2OS)) (UniProt Q7Z333)

| Substance | binding [1] | binding [2] | binding [3] |
| --- | --- | --- | --- |
| Ku80 (from UniProt P13010 1-732) | no binding | – | – |
| Senataxin (from UniProt Q7Z333 1-2677) (enzyme) | binds | binds | – |
| ADAR2 (from UniProt P78563 1-741) (enzyme) | – | binds | binds |
